Experimental data published in article PMC12040169 (PLOS Biology, 2025).
The other results are listed elsewhere or left out.

These molecules were tested on T1, CTL2-GFP (C. trachomatis L2/434/Bu, GFP-expressing). Conditions: bulk GFP, single well; 28.5 h, 10 µM; inhibitor.
T1 construct: L2/434/Bu, GFP-expressing
Design: species or system HeLa; Intracellular C. trachomatis growth in HeLa cells, bulk GFP fluorescence relative to DMSO
For `Cc1ccc(S(=O)(=O)NC[C@H]2C[C@@H]3CC[N@]2C[C@@H]3CN2CCOCC2)cc1` [CBK288758], the “% of control remaining” value was 119.191%.
`O=C(Nc1cccc2[nH]ccc12)c1ccoc1` [CBK159659] was tested, and the “% of control remaining” value was 115.986%.
In the case of `Cc1nn(C)cc1-c1cc(C(=O)Nc2ccccc2C2CC2)on1` [CBK281412], the “% of control remaining” value is reported as 117.192%.
With `COc1cncc(C(NC(=O)c2ccn3nnnc3c2)[C@H]2C[C@@H](O)C2)c1` (some centres unmarked) [CBK306686] the “% of control remaining” value was 101.607%.
For `CC(C)CC(=O)N1CCC(c2nnc3n2CCCCC3)CC1` [CBK284629], the “% of control remaining” value was 152.372%.
For `CS(=O)(=O)c1ccc(Cn2ccnc(N3CCN(C(=O)Cc4cccs4)CC3)c2=O)cc1` [CBK153773], the “% of control remaining” value was 122.142%.
In the case of `O=C(Cc1ccc2c(c1)CCCO2)Nc1c(OCCn2cccn2)ccc2ccccc12` [CBK285679], the “% of control remaining” value is reported as 123.43%.
With `O=C(Cc1ccc(F)cc1)N1CCC(c2cccc(Cc3ccccc3F)n2)CC1` [CBK286213] the “% of control remaining” value was 74.3629%.
For `Cc1cccc(N2C(=O)c3ccc(C(=O)c4ccc5c(c4)C(=O)N(c4cccc(C)n4)C5=O)cc3C2=O)n1` [CBK263069], the “% of control remaining” value was 103.487%.
With `N#CCCCN1CCC2(CC1)OCCc1c2[nH]c2ccc(Br)cc12` [CBK040105] the “% of control remaining” value was 114.561%.
`COc1ccc(-c2nn(CN3CCC(C(N)=O)CC3)c(=S)n2-c2ccccc2)cc1OC` [CBK264299] was tested, and the “% of control remaining” value was 133.343%.
For `CCOC(=O)N1CCC(NS(=O)(=O)c2ccc(F)cc2)CC1` [CBK045455], the “% of control remaining” value was 100.231%.
In the case of `IC1COC(c2ccccc2)OC1` (centres unmarked) [CBK021109], the “% of control remaining” value is reported as 89.7919%.
`Cc1ccc(CC(=O)N2CCCC2c2n[nH]cc2-c2ccncc2)cc1` (centres unmarked) [CBK283424] was tested, and the “% of control remaining” value was 121.839%.
With `O=C(CSCc1c(F)cccc1Cl)NCc1ccccc1Cl` [CBK269155] the “% of control remaining” value was 131.141%.
With `Cc1ccc(C(O)CN2CCC(O)(c3ccccc3F)CC2)cc1` (centres unmarked) [CBK283310] the “% of control remaining” value was 156.108%.
In the case of `Cc1cc(O)cc(=O)n1Cc1ccccn1` [CBK291159], the “% of control remaining” value is reported as 115.209%.
`CCCC(=O)N1CCCC([C@@H]2C[C@H](C(F)F)n3nc(C)cc3N2)C1` (some centres unmarked) [CBK284721] was tested, and the “% of control remaining” value was 163.187%.
`CC1(C)[C@H](Cc2cc(CN3CCOCC3)on2)C[C@@H]1NC(=O)C1CC1` [CBK289246] was tested, and the “% of control remaining” value was 122.815%.
With `Cn1ccnc1Sc1ncccc1C(F)(F)F` [CBK093759] the “% of control remaining” value was 119.243%.
With `N#Cc1cccc(C(=O)N2CCCN(Cc3ccc(Cl)cc3)CC2)c1` [CBK305323] the “% of control remaining” value was 105.4%.
With `O=C(CCc1ccccc1)N/N=C/c1cc2c(cc1[N+](=O)[O-])OCO2` [CBK261221] the “% of control remaining” value was 88.5479%.
With `Cc1cc(C)n2c(SCC(=O)c3ccccc3)nnc2n1` [CBK265378] the “% of control remaining” value was 123.007%.
For `Cc1nc(CN2CCN(C(=O)C3C4CCCCC43)CC2)cs1` (centres unmarked) [CBK281607], the “% of control remaining” value was 136.394%.
With `C=CCO[C@@H]1C[C@H]2C(=O)N3CCN(C(=O)NC4CCCCC4)C[C@H]3C(=O)N2C1` [CBK289619] the “% of control remaining” value was 131.856%.
With `COc1ccc(C(=O)N/C(=C/c2ccc([N+](=O)[O-])cc2)c2nc3ccc(C(F)(F)F)cc3[nH]2)cc1OC` [CBK263199] the “% of control remaining” value was 84.8907%.
In the case of `CCOc1ccc(-n2c(SCc3ccc(Br)cc3)nnc2-c2ccncc2)cc1` [CBK266017], the “% of control remaining” value is reported as 140.235%.
With `NC(=O)C1(Cc2ccc(-c3ccccc3)cc2)CCN(C(=O)CCc2ccccc2)CC1` [CBK285772] the “% of control remaining” value was 73.1588%.
For `c1ccc2c(CNCc3ccc4c(c3)OCO4)c[nH]c2c1` [CBK262159], the “% of control remaining” value was 118.76%.
`Cc1ccccc1C(=O)NCC(=O)Nc1ccc(Cl)nc1` [CBK091335] was tested, and the “% of control remaining” value was 117.663%.
With `CC(=O)Nc1ccc(Cc2nc(C3CC3)no2)cc1` [CBK305197] the “% of control remaining” value was 113.857%.
`COC1C(O)C(CO)OC1n1cc(F)c(=O)[nH]c1=O` (centres unmarked) [CBK201253] was tested, and the “% of control remaining” value was 140.461%.
In the case of `NCCc1c[nH]c2ccc(OCC(=O)O)cc12` [CBK265853C], the “% of control remaining” value is reported as 192.072%.
`O=c1[nH]c(=O)c2cc(S(=O)(=O)NCC3(c4ccccc4)CCCC3)ccc2[nH]1` [CBK286387] was tested, and the “% of control remaining” value was 108.427%.
`CN(C)CCCNC(=O)Nc1cccc(-c2nc(-c3ccc(C#N)cc3)cnc2N)c1` [CBK116287] was tested, and the “% of control remaining” value was 33.1355%.
`COCCNc1nc(-c2ccc(C(C)=O)s2)ccc1C(=O)N(C)CCN(C)C` [CBK105914] was tested, and the “% of control remaining” value was 89.73%.
`COc1c(O)ccc(/C=N/NC(=O)COc2c(Br)cc(Br)cc2Br)c1[N+](=O)[O-]` [CBK261957] was tested, and the “% of control remaining” value was 94.9878%.
In the case of `Cn1nc(NC(=O)CC(C)(C)CC(=O)O)c2c(F)cccc21` [CBK057122], the “% of control remaining” value is reported as 119.236%.
With `CCc1ccc(CCC(=O)N2CCN(S(=O)(=O)c3sc(C(=O)O)c(C)c3C(=O)O)CC2)cc1` [CBK297138] the “% of control remaining” value was 113.797%.
With `Nc1ncc(-c2cncnc2)nc1NC1CC1` [CBK063869] the “% of control remaining” value was 172.943%.
With `Cc1ccc(C)c(NC(=S)NCCc2ccc(S(N)(=O)=O)cc2)c1` [CBK264879] the “% of control remaining” value was 101.732%.
In the case of `COC(=O)c1ccc(OCc2nnn[nH]2)cc1` [CBK269544], the “% of control remaining” value is reported as 141.243%.
`CC1Cc2cc(C(O)CN3CCCCC3)ccc2N1C(=O)C1CC1` (centres unmarked) [CBK283144] was tested, and the “% of control remaining” value was 125.57%.
`O=C(Cc1ccc(Cl)cc1Cl)Nc1ccc2ncccc2c1` [CBK159787] was tested, and the “% of control remaining” value was 111.495%.
For `Cc1ccccc1OCC(=O)Nc1ccc(CSc2ccccc2)cc1` [CBK264651], the “% of control remaining” value was 102.222%.
In the case of `CC(=O)N1CCC[C@@H](N)[C@@H]1c1ccccc1F` [CBK281562], the “% of control remaining” value is reported as 107.62%.
`CCOC(=O)c1cccc(NS(=O)(=O)c2c(C)noc2C)c1` [CBK034339] was tested, and the “% of control remaining” value was 130.513%.
With `CCN1C(=O)c2ccccc2C(=O)[C@@]2(C)CN(C)C[C@@H]12` [CBK283478] the “% of control remaining” value was 150.732%.
In the case of `Cc1ccc(Cl)cc1-n1cc(-c2ccc(F)cc2F)nn1` [CBK112995], the “% of control remaining” value is reported as 123.988%.
In the case of `CCn1c(C)nc2cc(NC(=O)Cn3cccn3)ccc21` [CBK281828], the “% of control remaining” value is reported as 138.164%.
